Test results taken from the supplement of paper PMC10735217.
Structures can show the parent of a compound that is named as a salt. This is one part of the list. Single values are uncertain here, since repeats match poorly.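 In a drug-repurposing library screen, luminescence reads luciferase driven by eight TEAD-binding elements, stably integrated into human kidney-derived cells. Compounds scoring over five robust Z scores above the plate mean are called hits.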

System: HEK293A TEAD-LUC reporter
Assay: TEAD-luciferase reporter activity (YAP activation), robust Z score vs plate; higher = stronger YAP/TEAD activation
Settings: 24 h

| SMILES | TEAD-luciferase reporter activity (compound concentration: 200 nM) | TEAD-luciferase reporter activity (compound concentration: 2 uM) | TEAD-luciferase reporter activity (compound concentration: 10 uM) |
| --- | --- | --- | --- |
| CCc1cc2c(s1)-n1c(C)nnc1CN=C2c1ccccc1Cl [etizolam] | inactive: -0.247 | inactive: -0.207 | inactive: 0.341 |
| CCOP(=S)(OCC)Oc1ccc2c(C)c(Cl)c(=O)oc2c1 [Coumaphos] | inactive: -0.0838 | inactive: -1.17 | inactive: -0.0716 |
| COc1cc(C(=O)N2CCC(CCN3CCC(C(N)=O)(c4ccccc4)CC3)(c3ccc(Cl)c(Cl)c3)C2)cc(OC)c1OC (stereo not drawn) | inactive: 0.158 | inactive: -0.353 | inactive: 0.957 |
| C[C@H]1CC(=O)C[C@@H]2CC[C@H]3[C@@H]4CC[C@H](O)[C@@]4(C)CC[C@@H]3[C@]21C [Mesterolone] | inactive: -0.239 | – | inactive: 2.79 |
| COc1ccc(C(C)C)cc1CNC1C2CCN(CC2)C1C(c1ccccc1)c1ccccc1 (stereo not drawn) | inactive: 0.0842 | inactive: -0.0894 | inactive: 0.179 |
| C[C@H]1N=C(c2ccccc2Cl)c2cc([N+](=O)[O-])ccc2NC1=O | inactive: -1.74 | inactive: -1.04 | inactive: 0.199 |
| COc1cc2c(cc1OC)C1CC(=O)C(CC(C)C)CN1CC2 (stereo not drawn) [tetrabenazine MR] | – | inactive: -0.367 | – |
| COc1cc2c(cc1OC)C1CC(=O)C(CC(C)C)CN1CC2 (stereo not drawn) [Tetrabenazine] | inactive: -2.84 | – | inactive: 2.83 |
| COc1ccc(CC(=O)N2CNC(=O)C23CCN(C(=O)[C@@H](N)c2ccccc2)CC3)cc1 | inactive: 0.632 | – | inactive: -0.614 |
| C[C@]12Cc3c[nH]nc3CC1CCC1C2CC[C@@]2(C)C1CC[C@]2(C)O (stereo partly drawn) [Androstanazole] | inactive: 1.01 | inactive: 0.584 | inactive: 3.87 |
| O=[As]O[As]=O (stereo not drawn) | – | inactive: 1.2 | – |
| O=C(O)C1(c2ccc3c(c2)OC[C@H](Cc2ccc(-c4ccccc4)cc2)[C@H]3O)CCCC1 | inactive: -0.332 | inactive: -1.28 | inactive: 1.19 |
| c1ccc(C2(c3ccccc3)OC[C@H]([C@@H]3CCCCN3)O2)cc1 [Dexoxadrol] | inactive: -1.12 | inactive: -1.06 | inactive: 0.988 |
| COc1ccc(/C=C2\CCCN=C2c2cccnc2)c(OC)c1 [DMXB-Anabaseine] | inactive: 0.588 | inactive: -1.83 | inactive: 0.361 |
| C[C@]12CC[C@H](O)C[C@H]1CC[C@@H]1[C@@H]2CC[C@]2(C)[C@@](O)(c3ccoc3)CC[C@]12O [rostafuroxin] | inactive: -0.945 | inactive: -1.13 | active: 9.03 |
| C1CCC2[NH2+][Pt][NH2+]C2C1 (stereo not drawn) | inactive: -0.0414 | inactive: -0.427 | inactive: 0.174 |
| COc1ccc(C(=O)N2CCCC2C(=O)N2CCC(N3Cc4ccccc4C3=O)CC2)cc1 (stereo not drawn) | inactive: -0.277 | – | inactive: 0.649 |
| CCCCC1C(=O)NC(=O)N(C2CCCCC2)C1=O (stereo not drawn) | inactive: -1.75 | inactive: -1.73 | inactive: 0.5 |
| CC[N+]1(CC)CCC(OC(=O)C(O)(c2ccccc2)c2ccccc2)C1 (stereo not drawn) | inactive: -0.386 | inactive: -1.62 | inactive: -0.571 |
| O=C1CN=C(c2ccccc2)c2ccccc2N1Cc1ccc([N+](=O)[O-])cc1 | inactive: -1.87 | inactive: -0.921 | inactive: -1.88 |
| O=C(Cc1ccc(-c2ccc(N3CCOCC3)cc2)cn1)NCc1cccc(F)c1 | inactive: 0.00162 | active: 7.77 | active: 14.8 |

| SMILES | TEAD-luciferase reporter activity (compound concentration: 200 nM) | TEAD-luciferase reporter activity (compound concentration: 2 uM) | TEAD-luciferase reporter activity (compound concentration: 10 uM) |
| --- | --- | --- | --- |
| C[C@H]1CCCC[C@@]1(c1cccs1)N1CCCCC1 | inactive: -0.296 | inactive: -0.45 | active: 6.22 |
| CO[C@@]12[C@H](COC(N)=O)C3=C(C(=O)C(C)=C(Nc4ccc(O)cc4)C3=O)N1C[C@@H]1N[C@@H]12 | inactive: -0.481 | inactive: -2.4 | inactive: -1.63 |
| [O-][N+]1=C(c2ccccc2)c2cc(Cl)ccc2N=C(O)C1 | inactive: -0.355 | inactive: -1.98 | inactive: -1.77 |
| C[C@@H](N)Cc1c[nH]cn1 [(R)-alpha-Methylhistamine] | inactive: -0.143 | inactive: -1.7 | inactive: 3.13 |
| OCCSSCCO [2,2'-disulfanediyldiethanol] | inactive: -0.477 | inactive: -1.34 | inactive: -0.344 |
| O=C(OCC1CC1)c1ncn2c1C1CCN1C(=O)c1c(Cl)cccc1-2 (stereo not drawn) | inactive: -0.416 | inactive: -1.08 | inactive: -0.644 |
| S=C1CN=C(c2ccccc2)c2cc(Cl)ccc2N1 | inactive: 2.13 | inactive: -2.39 | inactive: 3.36 |
| CN[C@@H]1C[C@@H](c2ccc(Cl)c(Cl)c2)c2ccccc21 | – | inactive: -1.07 | – |
| CN[C@@H]1C[C@@H](c2ccc(Cl)c(Cl)c2)c2ccccc21 [Indatraline] | inactive: -0.0677 | – | inactive: 0.498 |
| CCCC[N+]1(C)[C@@H]2C[C@@H](OC(=O)[C@H](CO)c3ccccc3)C[C@H]1[C@@H]1O[C@@H]12 (stereo partly drawn) [Scopolamine n-butylbromide] | inactive: -0.869 | inactive: -0.634 | inactive: -0.193 |
| O=C(Nc1ccc2ncccc2c1)C(=O)c1cn(Cc2ccc(Cl)cc2)c2ccccc12 [Entasobulin] | inactive: 1.83 | inactive: 3.61 | active: 9.42 |
| c1nc(NC2=NCC3(O2)CN2CC[C@H]3CC2)cc(n1)n1cncc1 (stereo not drawn) | inactive: -0.564 | inactive: -1.34 | inactive: -1.35 |
| CC(=O)OC1(C(C)CN(C)C)CCCCC1c1ccccc1 (stereo not drawn) | inactive: -0.436 | inactive: -1.55 | inactive: -1.1 |
| Nc1ccncc1 [4-aminopyridine, Neurorecovery] | inactive: 0.0303 | inactive: -1.9 | inactive: 0.0175 |
| CCCCCCCCC1OOC(CCCCCCCC(=O)OC)O1 (stereo not drawn) | inactive: 0.601 | inactive: -1.01 | inactive: 3.49 |
| CCN1CCCCC12Cc1ccccc1CN(C(=O)Cc1ccc(OC)cc1)C2 (stereo not drawn) | inactive: -0.784 | – | inactive: 1.26 |
| CN1CCCC1CCSc1ccc(O)cc1 (stereo not drawn) | inactive: -1.41 | inactive: -1.76 | inactive: 0.0227 |
| CCOc1ccccc1-n1c(CN2CCNCC2)nc2ccccc2c1=O | inactive: -0.478 | inactive: -2.27 | inactive: -2.32 |
| CCC1(CC)C(=O)NC(=O)N(c2ccccc2)C1=O | inactive: -0.339 | inactive: -1.15 | inactive: -1.18 |
| COc1ccc(C(CN(C)C)C2(O)CCCCC2)cc1 (stereo not drawn) | inactive: 0.739 | – | inactive: -1.5 |
| COc1ccc(C(CN(C)C)C2(O)CCCCC2)cc1 (stereo not drawn) [venlafaxine hydrochloride] | – | inactive: -1.15 | – |

| SMILES | TEAD-luciferase reporter activity (compound concentration: 200 nM) | TEAD-luciferase reporter activity (compound concentration: 2 uM) | TEAD-luciferase reporter activity (compound concentration: 10 uM) |
| --- | --- | --- | --- |
| O=C(NCc1ccccc1)c1cnc(Nc2cccc(Cl)c2)nc1C(F)(F)F | inactive: 3.03 | inactive: -0.195 | inactive: -0.764 |
| NCCc1ccc(O)cc1 | inactive: 1.17 | inactive: -1.42 | inactive: -0.651 |
| O=C(c1ccncc1)N1CC2CCC(C1)N2Cc1cccc(Cl)c1 | inactive: 1.25 | – | inactive: 0.108 |
| O=C(O)C(=O)c1cn(Cc2ccccc2)c2ccc(-c3ccc(OC(F)(F)F)cc3)cc12 [Tiplasinin] | inactive: -0.75 | inactive: -1.76 | inactive: -1.21 |
| C[C@]12CC[C@H]3[C@@H](CCC4=CC(=O)CC[C@@]43C)[C@@H]1CC[C@@H]2OC(=O)CCc1ccccc1 | inactive: -1.93 | inactive: 0.259 | inactive: -1.29 |
| CN(C)C(=O)Oc1ccc[n+](C)c1 [Mestinon] | inactive: -1.59 | – | inactive: 0.146 |
| CN(C)C(=O)Oc1ccc[n+](C)c1 [Pyridostigmine bromide] | – | inactive: -1.49 | – |
| NC[C@@H]1Cc2ccc(F)cc2[C@H](c2ccccc2)O1 | inactive: -0.303 | inactive: -0.584 | inactive: 1.45 |
| O=C(C1CCCC1)N1CCC(C(=O)O)(c2ccccc2)CC1 | inactive: -0.752 | – | inactive: 0.717 |
| C=CCC(C(=O)NC(N)=O)C(C)C (stereo not drawn) | inactive: -1.7 | inactive: 2.56 | inactive: 0.0616 |
| NC(Cc1ccc(O)cc1)C(=O)NC(Cc1ccc(O)cc1)C(=O)NC(Cc1ccc(O)cc1)C(=O)O (stereo not drawn) | inactive: -0.732 | inactive: 0.929 | inactive: 0.454 |
| CN1CCN(C(=O)Cc2ccc3ccccc3c2)CC1 | inactive: -0.375 | inactive: -1.87 | inactive: -1.15 |
| O=C1Nc2ccc(Br)cc2C(c2ccc(Cl)cc2)=NC1O (stereo not drawn) | inactive: -1.54 | inactive: -0.248 | inactive: 0.281 |
| Clc1ccc(C2(Cn3cncn3)OCCO2)c(Cl)c1 | inactive: -0.525 | inactive: -0.163 | inactive: 0.397 |
| Cc1nnc2n1-c1sc(CCC(=O)N3CCOCC3)cc1C(c1ccccc1Cl)=NC2 | inactive: 3.39 | inactive: -0.223 | inactive: 0.576 |
| O=C(CBr)N1CC([N+](=O)[O-])([N+](=O)[O-])C1 | inactive: -0.397 | inactive: -0.183 | inactive: 1.58 |
| C[C@@H]1CN2c3c(cc4c(N5C(=O)OC[C@H]5C)noc4c3F)CC3(C(=O)NC(=O)NC3=O)[C@@H]2[C@H](C)O1 | inactive: -1.22 | inactive: 2.59 | inactive: -1.45 |
| BrC(Br)Br | inactive: -1.91 | inactive: -1.05 | inactive: -0.231 |
| CN1c2ccccc2C(NCCCCCCC(=O)O)c2ccc(Cl)cc2S1(=O)=O (stereo not drawn) [Tianeptine sodium] | inactive: -0.473 | – | inactive: -1.68 |
| CN1c2ccccc2C(NCCCCCCC(=O)O)c2ccc(Cl)cc2S1(=O)=O (stereo not drawn) [tianeptine] | – | inactive: -2.04 | – |

Four entries from above, with each value named:
O=C(c1ccncc1)N1CC2CCC(C1)N2Cc1cccc(Cl)c1
  TEAD-luciferase reporter activity (compound concentration: 200 nM): inactive: 1.25
  TEAD-luciferase reporter activity (compound concentration: 10 uM): inactive: 0.108
O=C(O)C(=O)c1cn(Cc2ccccc2)c2ccc(-c3ccc(OC(F)(F)F)cc3)cc12 [Tiplasinin]
  TEAD-luciferase reporter activity (compound concentration: 200 nM): inactive: -0.75
  TEAD-luciferase reporter activity (compound concentration: 2 uM): inactive: -1.76
  TEAD-luciferase reporter activity (compound concentration: 10 uM): inactive: -1.21
C[C@]12CC[C@H]3[C@@H](CCC4=CC(=O)CC[C@@]43C)[C@@H]1CC[C@@H]2OC(=O)CCc1ccccc1
  TEAD-luciferase reporter activity (compound concentration: 200 nM): inactive: -1.93
  TEAD-luciferase reporter activity (compound concentration: 2 uM): inactive: 0.259
  TEAD-luciferase reporter activity (compound concentration: 10 uM): inactive: -1.29
CN(C)C(=O)Oc1ccc[n+](C)c1 [Mestinon]
  TEAD-luciferase reporter activity (compound concentration: 200 nM): inactive: -1.59
  TEAD-luciferase reporter activity (compound concentration: 10 uM): inactive: 0.146
